This is one part of the list.
How the values were obtained:
Assay in all cases: log2 fold change, soluble protein after heating vs DMSO (PISA); higher = thermal stabilisation; K562 lysate, 10 uM; active = over 0.2 and 3.5 SD of the protein, either way, in both replicates (recomputed)
lapatinib = compound: CS(=O)(=O)CCNCc1ccc(-c2ccc3ncnc(Nc4ccc(OCc5cccc(F)c5)c(Cl)c4)c3c2)o1 [lapatinib]
Method in brief: (§1)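 Pellets of K562 cells were dounce-homogenised in PBS pH 7.4 with 1 mM MgCl2, and the crude extract was held at 1 mg/mL protein for a 30 min treatment with 10 μM compound. Aliquots were heated for 3 min over 48°C-58°C and pooled before NP-40 was added to 0.5% at 4°C. The supernatant from 21,000xg for 90 min was quantified by TMTpro 16plex LC-MS/MS with channel sums equalised. Values are reported from duplicates as log-two fold change in thermal stability relative to solvent controls.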

Chains of the proteins cited; added tags and fusions are not shown. Lines headed by an entry give the natural chain unless they say otherwise; changes in a name come on top.
UniProt Q92997: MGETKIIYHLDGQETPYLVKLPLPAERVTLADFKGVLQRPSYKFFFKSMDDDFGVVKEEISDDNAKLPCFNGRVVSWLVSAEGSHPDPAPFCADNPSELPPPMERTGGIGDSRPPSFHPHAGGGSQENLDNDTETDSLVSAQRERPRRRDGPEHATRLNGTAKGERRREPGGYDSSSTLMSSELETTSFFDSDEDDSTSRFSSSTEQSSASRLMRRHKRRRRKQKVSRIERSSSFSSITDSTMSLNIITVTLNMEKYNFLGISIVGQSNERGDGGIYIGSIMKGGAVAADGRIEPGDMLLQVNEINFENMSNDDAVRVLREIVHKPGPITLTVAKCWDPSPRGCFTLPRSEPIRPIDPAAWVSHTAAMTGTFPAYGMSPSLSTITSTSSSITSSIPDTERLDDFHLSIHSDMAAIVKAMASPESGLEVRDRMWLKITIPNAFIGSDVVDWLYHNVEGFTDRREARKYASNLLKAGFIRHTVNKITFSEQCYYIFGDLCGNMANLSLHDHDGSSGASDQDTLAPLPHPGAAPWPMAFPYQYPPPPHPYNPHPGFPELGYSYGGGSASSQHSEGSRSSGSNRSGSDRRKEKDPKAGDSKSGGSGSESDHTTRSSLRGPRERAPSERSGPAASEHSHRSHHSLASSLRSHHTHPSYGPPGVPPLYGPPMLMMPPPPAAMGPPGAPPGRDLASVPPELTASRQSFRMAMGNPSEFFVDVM
UniProt Q9H8V3: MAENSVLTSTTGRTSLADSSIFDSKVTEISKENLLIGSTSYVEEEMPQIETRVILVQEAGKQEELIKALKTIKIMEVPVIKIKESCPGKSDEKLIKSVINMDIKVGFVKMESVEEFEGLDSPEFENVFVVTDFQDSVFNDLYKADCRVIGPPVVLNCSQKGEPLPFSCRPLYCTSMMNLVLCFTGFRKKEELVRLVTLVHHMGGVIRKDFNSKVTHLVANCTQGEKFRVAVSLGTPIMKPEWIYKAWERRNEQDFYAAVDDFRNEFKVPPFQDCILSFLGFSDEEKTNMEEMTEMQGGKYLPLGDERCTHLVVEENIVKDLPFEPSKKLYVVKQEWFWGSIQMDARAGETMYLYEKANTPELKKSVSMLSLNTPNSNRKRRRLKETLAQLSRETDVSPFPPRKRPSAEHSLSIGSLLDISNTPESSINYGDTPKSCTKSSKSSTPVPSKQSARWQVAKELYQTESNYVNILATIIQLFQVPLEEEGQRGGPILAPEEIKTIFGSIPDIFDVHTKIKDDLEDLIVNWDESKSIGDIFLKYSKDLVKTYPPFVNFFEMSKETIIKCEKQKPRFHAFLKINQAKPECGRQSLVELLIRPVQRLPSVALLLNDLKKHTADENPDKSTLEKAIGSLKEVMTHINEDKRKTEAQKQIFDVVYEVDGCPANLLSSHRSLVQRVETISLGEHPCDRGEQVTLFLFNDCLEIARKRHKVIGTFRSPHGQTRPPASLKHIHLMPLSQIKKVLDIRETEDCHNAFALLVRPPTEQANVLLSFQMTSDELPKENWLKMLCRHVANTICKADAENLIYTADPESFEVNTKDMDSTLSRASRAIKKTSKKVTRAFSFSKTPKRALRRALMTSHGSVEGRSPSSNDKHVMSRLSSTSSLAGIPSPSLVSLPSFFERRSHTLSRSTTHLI
UniProt P42126: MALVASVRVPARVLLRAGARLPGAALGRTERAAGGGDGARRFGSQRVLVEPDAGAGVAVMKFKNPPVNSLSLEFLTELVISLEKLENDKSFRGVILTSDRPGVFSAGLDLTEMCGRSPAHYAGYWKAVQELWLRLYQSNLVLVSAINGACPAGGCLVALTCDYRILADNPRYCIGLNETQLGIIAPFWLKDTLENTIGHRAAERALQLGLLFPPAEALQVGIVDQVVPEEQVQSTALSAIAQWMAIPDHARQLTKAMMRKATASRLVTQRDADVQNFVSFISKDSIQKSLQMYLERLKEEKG
UniProt Q9NRW4: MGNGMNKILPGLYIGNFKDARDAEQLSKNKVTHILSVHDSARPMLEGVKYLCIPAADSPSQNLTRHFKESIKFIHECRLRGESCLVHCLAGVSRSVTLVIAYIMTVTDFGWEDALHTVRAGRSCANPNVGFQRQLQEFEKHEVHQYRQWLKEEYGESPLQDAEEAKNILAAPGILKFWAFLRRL
UniProt Q8NCM8: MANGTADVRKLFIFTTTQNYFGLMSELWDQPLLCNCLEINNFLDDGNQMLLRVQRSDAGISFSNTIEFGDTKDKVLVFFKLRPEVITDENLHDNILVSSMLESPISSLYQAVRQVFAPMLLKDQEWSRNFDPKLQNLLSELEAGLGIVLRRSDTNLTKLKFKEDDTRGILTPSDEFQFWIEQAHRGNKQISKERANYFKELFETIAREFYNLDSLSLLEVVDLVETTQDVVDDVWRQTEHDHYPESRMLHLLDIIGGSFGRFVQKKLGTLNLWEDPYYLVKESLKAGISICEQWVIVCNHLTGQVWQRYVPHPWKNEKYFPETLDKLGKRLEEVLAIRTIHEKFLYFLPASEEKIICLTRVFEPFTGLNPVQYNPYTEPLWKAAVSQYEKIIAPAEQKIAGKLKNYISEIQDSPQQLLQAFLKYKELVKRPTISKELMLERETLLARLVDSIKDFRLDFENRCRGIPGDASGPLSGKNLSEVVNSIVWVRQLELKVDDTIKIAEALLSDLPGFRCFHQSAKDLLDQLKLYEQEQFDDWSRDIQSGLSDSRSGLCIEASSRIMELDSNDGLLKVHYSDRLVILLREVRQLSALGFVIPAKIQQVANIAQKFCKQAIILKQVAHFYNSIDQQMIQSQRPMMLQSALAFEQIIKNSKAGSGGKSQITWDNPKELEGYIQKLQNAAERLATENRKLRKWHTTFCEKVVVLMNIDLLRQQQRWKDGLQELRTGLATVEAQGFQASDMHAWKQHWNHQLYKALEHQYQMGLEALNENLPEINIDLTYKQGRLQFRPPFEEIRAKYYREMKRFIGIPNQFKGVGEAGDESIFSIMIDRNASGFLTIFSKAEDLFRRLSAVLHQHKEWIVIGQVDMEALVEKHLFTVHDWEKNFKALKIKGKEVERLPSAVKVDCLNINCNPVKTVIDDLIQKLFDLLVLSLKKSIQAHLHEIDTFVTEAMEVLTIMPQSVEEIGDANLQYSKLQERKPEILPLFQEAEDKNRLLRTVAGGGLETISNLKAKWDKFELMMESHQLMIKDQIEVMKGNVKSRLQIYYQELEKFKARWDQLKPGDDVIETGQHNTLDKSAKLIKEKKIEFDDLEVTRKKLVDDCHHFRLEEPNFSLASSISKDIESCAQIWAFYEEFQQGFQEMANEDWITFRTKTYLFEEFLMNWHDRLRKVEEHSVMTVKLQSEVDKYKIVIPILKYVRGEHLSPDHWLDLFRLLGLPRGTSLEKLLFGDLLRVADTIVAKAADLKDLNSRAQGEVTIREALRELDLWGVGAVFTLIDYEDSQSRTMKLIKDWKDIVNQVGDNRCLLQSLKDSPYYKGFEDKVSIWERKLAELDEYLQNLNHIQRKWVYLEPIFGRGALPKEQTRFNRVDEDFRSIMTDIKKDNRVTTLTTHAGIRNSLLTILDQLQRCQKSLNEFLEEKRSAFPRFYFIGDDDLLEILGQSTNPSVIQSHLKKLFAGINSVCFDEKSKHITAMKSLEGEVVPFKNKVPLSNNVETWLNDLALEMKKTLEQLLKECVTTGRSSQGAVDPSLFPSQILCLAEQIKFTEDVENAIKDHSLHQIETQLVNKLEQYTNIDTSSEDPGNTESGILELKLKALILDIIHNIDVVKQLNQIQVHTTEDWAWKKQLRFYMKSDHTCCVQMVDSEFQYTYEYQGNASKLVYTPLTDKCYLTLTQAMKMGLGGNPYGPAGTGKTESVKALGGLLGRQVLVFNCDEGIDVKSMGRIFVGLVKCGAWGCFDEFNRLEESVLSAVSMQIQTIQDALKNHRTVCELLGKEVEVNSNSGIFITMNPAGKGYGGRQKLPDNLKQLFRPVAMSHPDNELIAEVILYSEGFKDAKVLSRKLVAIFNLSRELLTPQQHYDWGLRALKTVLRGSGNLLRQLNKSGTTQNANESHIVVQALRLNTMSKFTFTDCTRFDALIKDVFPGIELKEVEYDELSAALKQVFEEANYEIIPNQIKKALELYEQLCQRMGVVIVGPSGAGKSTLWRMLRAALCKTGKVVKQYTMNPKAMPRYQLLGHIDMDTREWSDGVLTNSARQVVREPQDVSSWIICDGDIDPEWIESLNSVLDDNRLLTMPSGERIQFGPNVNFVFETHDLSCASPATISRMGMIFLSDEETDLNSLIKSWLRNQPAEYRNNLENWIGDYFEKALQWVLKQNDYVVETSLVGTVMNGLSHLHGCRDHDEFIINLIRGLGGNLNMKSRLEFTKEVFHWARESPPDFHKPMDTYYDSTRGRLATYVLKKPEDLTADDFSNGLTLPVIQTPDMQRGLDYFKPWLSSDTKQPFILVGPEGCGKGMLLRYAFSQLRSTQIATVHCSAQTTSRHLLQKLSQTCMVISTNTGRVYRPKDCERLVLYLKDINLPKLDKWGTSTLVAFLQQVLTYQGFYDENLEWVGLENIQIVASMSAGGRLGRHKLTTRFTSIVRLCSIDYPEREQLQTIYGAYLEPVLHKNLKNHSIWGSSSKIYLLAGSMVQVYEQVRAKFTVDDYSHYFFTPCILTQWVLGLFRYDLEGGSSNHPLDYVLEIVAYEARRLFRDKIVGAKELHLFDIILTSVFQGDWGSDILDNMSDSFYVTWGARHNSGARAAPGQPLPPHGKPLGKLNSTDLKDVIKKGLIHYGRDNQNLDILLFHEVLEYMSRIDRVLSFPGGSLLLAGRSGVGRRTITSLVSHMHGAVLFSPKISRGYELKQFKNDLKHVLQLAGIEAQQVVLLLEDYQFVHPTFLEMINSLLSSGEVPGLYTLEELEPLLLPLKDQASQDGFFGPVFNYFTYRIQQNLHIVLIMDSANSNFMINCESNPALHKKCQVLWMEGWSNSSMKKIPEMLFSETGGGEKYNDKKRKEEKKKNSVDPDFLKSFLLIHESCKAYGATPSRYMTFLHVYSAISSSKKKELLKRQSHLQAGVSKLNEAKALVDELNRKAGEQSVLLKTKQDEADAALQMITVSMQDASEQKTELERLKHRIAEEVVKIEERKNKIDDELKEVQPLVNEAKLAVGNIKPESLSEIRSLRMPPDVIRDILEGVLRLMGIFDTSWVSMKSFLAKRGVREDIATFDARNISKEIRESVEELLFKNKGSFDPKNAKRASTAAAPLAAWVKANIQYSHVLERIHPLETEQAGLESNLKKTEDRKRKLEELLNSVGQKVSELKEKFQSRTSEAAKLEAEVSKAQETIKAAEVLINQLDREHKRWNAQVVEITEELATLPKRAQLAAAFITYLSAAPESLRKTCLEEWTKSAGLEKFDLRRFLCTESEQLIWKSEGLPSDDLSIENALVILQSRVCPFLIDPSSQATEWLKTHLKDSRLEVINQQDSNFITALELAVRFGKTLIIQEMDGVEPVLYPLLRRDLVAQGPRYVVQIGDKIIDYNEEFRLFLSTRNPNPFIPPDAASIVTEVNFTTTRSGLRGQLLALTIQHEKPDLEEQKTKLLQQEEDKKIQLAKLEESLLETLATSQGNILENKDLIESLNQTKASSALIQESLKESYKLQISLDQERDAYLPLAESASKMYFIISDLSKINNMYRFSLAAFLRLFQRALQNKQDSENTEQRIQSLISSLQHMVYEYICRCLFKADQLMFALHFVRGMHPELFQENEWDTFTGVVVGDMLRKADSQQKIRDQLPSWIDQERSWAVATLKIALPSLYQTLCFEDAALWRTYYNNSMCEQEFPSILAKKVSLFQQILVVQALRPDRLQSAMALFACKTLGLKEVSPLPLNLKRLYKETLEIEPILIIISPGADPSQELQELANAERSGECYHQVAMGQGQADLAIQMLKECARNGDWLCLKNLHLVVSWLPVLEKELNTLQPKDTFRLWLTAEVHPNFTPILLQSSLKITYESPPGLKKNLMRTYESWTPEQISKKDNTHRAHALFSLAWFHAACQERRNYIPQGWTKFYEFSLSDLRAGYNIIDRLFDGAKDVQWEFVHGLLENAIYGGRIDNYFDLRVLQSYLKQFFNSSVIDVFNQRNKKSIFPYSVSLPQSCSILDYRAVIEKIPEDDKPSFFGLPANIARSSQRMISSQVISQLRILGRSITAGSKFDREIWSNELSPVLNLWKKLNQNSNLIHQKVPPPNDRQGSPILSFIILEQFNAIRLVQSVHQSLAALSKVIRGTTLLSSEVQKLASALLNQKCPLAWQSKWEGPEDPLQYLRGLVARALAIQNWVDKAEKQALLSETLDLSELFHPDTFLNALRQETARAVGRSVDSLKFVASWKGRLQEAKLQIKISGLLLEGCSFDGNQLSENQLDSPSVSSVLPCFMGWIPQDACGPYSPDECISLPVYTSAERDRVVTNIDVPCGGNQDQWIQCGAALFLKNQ

pictilisib = compound: CS(=O)(=O)N1CCN(Cc2cc3nc(-c4cccc5[nH]ncc45)nc(N4CCOCC4)c3s2)CC1 [pictilisib]
Method in brief: as §1

crizotinib = compound: C[C@@H](Oc1cc(-c2cnn(C3CCNCC3)c2)cnc1N)c1c(Cl)ccc(F)c1Cl [crizotinib]
Method in brief: as §1

[1] = compound: C[C@H](C1=CC=C(C=C1)C(=O)NC2=C3C=CNC3=NC=C2)N
Method in brief: as §1

duvelisib = compound: C[C@H](Nc1ncnc2nc[nH]c12)c1cc2cccc(Cl)c2c(=O)n1-c1ccccc1 [duvelisib]
Method in brief: as §1

gandotinib = compound: Cc1cc(Nc2cc(CN3CCOCC3)c3nc(C)c(Cc4ccc(Cl)cc4F)n3n2)n[nH]1 [gandotinib]
Method in brief: as §1

tozasertib = compound: Cc1cc(Nc2cc(N3CCN(C)CC3)nc(Sc3ccc(NC(=O)C4CC4)cc3)n2)n[nH]1 [tozasertib]
Method in brief: as §1

doramapimod = compound: Cc1ccc(-n2nc(C(C)(C)C)cc2NC(=O)Nc2ccc(OCCN3CCOCC3)c3ccccc23)cc1 [doramapimod]
Method in brief: as §1

bafetinib = compound: Cc1ccc(NC(=O)c2ccc(CN3CC[C@H](N(C)C)C3)c(C(F)(F)F)c2)cc1Nc1nccc(-c2cncnc2)n1 [bafetinib]
Method in brief: as §1

[2] = compound: Cc1cccc(CC(=O)N2CCc3c2ccc(-c2cn(C)c4ncnc(N)c24)c3F)n1
Method in brief: as §1

nilotinib = compound: Cc1cn(-c2cc(NC(=O)c3ccc(C)c(Nc4nccc(-c5cccnc5)n4)c3)cc(C(F)(F)F)c2)cn1 [nilotinib]
Method in brief: as §1

[3] = compound: Cc1nc(Nc2n[nH]c3c2CN(C(=O)N[C@H](CN(C)C)c2ccccc2)C3(C)C)c2sccc2n1
Method in brief: as §1

dasatinib = compound: Cc1nc(Nc2ncc(C(=O)Nc3c(C)cccc3Cl)s2)cc(N2CCN(CCO)CC2)n1 [dasatinib]
Method in brief: as §1

[4] = compound: Cc1ncc(-c2ccnc(Nc3ccc(S(C)(=O)=O)cc3)n2)n1C(C)C
Method in brief: as §1

[5] = compound: Cn1cc(-c2ccc3c(c2)CCN3C(=O)Cc2cccc(C(F)(F)F)c2)c2c(N)ncnc21
Method in brief: as §1

quisinostat = compound: Cn1cc(CNCC2CCN(c3ncc(C(=O)NO)cn3)CC2)c2ccccc21 [quisinostat]
Method in brief: as §1

tipifarnib = compound: Cn1cncc1[C@@](N)(c1ccc(Cl)cc1)c1ccc2c(c1)c(-c1cccc(Cl)c1)cc(=O)n2C [tipifarnib]
Method in brief: as §1

[6] = compound: NC(=O)Nc1cc(-c2cccc(F)c2)sc1C(=O)N[C@H]1CCCNC1
Method in brief: as §1

[7] = compound: NC(=O)c1cnc(N[C@@H]2CCCC[C@@H]2N)nc1Nc1cccc(-n2nccn2)c1
Method in brief: as §1

[8] = compound: NC1(c2ccc(-c3nc4ccn5c(=O)[nH]nc5c4cc3-c3ccccc3)cc2)CCC1
Method in brief: as §1

Measured: log2 fold change

EHD2 (UniProt Q9NZN4)
inactive: lapatinib -0.047 | pictilisib -0.052 | crizotinib -0.033 | [1] 0.004 | duvelisib 0.026 | gandotinib -0.117 | tozasertib -0.004 | doramapimod 0.02 | bafetinib -0.063 | [2] 0.017 | nilotinib 0.007 | [3] -0.02 | dasatinib -0.018 | [4] 0.019 | [5] -0.084 | quisinostat -0.074 | tipifarnib -0.047 | [6] 0.09 | [7] 0.029 | [8] -0.042

EEF1AKMT4 (UniProt P0DPD7)
inactive: lapatinib -0.052 | pictilisib 0.009 | crizotinib -0.012 | [1] -0.046 | duvelisib -0.038 | gandotinib 0.067 | tozasertib -0.072 | doramapimod -0.038 | bafetinib -0.171 | [2] 0.193 | nilotinib -0.01 | [3] -0.064 | dasatinib -0.051 | [4] 0.04 | [5] -0.109 | quisinostat 0.075 | tipifarnib 0.004 | [6] 0.105 | [7] 0.096 | [8] -0.064

ECHDC3 (UniProt Q96DC8)
inactive: lapatinib 0.012 | pictilisib -0.011 | crizotinib 0.002 | [1] 0.009 | duvelisib 0.021 | gandotinib 0.003 | tozasertib 0.187 | doramapimod -0.06 | bafetinib -0.021 | [2] -0.069 | nilotinib -0.023 | [3] 0.051 | dasatinib 0.018 | [4] -0.035 | [5] 0.038 | quisinostat 0.044 | tipifarnib -0.034 | [6] 0.036 | [7] 0 | [8] 0.011

DVL3 (UniProt Q92997)
inactive: lapatinib -0.055 | pictilisib -0.055 | crizotinib -0.138 | [1] -0.311 | gandotinib 0.132 | tozasertib 0.042 | doramapimod 0.175 | bafetinib 0.047 | [2] 0.194 | nilotinib 0.017 | [3] 0.057 | [4] -0.073 | quisinostat 0.095 | tipifarnib 0.025 | [6] 0.026 | [7] -0.052 | [8] -0.003

ECT2 (UniProt Q9H8V3)
inactive: lapatinib 0.067 | pictilisib -0.117 | crizotinib 0.069 | [1] -0.102 | duvelisib 0.014 | gandotinib 0.162 | tozasertib 0.115 | doramapimod 0.112 | bafetinib -0.075 | [2] 0.096 | nilotinib -0.035 | [3] -0.053 | dasatinib 0.095 | [4] -0.003 | [5] -0.005 | quisinostat -0.096 | tipifarnib -0.041 | [6] -0.021 | [7] 0.07 | [8] -0.076

Pulled one by one from the list above, two records:
EEF1AKMT4 (UniProt P0DPD7)
inactive: lapatinib -0.052 | pictilisib 0.009 | crizotinib -0.012 | [1] -0.046 | duvelisib -0.038 | gandotinib 0.067 | tozasertib -0.072 | doramapimod -0.038 | bafetinib -0.171 | [2] 0.193 | nilotinib -0.01 | [3] -0.064 | dasatinib -0.051 | [4] 0.04 | [5] -0.109 | quisinostat 0.075 | tipifarnib 0.004 | [6] 0.105 | [7] 0.096 | [8] -0.064

EHD2 (UniProt Q9NZN4)
inactive: lapatinib -0.047 | pictilisib -0.052 | crizotinib -0.033 | [1] 0.004 | duvelisib 0.026 | gandotinib -0.117 | tozasertib -0.004 | doramapimod 0.02 | bafetinib -0.063 | [2] 0.017 | nilotinib 0.007 | [3] -0.02 | dasatinib -0.018 | [4] 0.019 | [5] -0.084 | quisinostat -0.074 | tipifarnib -0.047 | [6] 0.09 | [7] 0.029 | [8] -0.042

The results go on.

ECI1 (UniProt P42126)
inactive: lapatinib 0.005 | pictilisib -0.011 | crizotinib 0.037 | [1] -0.024 | duvelisib 0.009 | gandotinib 0.008 | tozasertib -0.004 | doramapimod -0.006 | bafetinib -0.026 | [2] -0.026 | nilotinib 0.016 | [3] 0.004 | dasatinib -0.015 | [4] -0.025 | [5] -0.01 | quisinostat 0.031 | tipifarnib 0.001 | [6] -0.009 | [7] -0.038 | [8] 0.031

EEF2K (UniProt O00418)
inactive: lapatinib 0.051 | pictilisib -0.027 | crizotinib -0.049 | [1] -0.004 | duvelisib 0.057 | gandotinib -0.034 | tozasertib 0.04 | doramapimod 0.006 | bafetinib -0.086 | [2] -0.005 | nilotinib 0.054 | [3] 0.003 | dasatinib -0.029 | [4] -0.004 | [5] -0.007 | quisinostat -0.053 | tipifarnib 0.003 | [6] 0.069 | [7] -0.023 | [8] 0.003

DUSP22 isoform 2 (UniProt Q9NRW4)
inactive: lapatinib 0.031 | pictilisib -0.082 | [1] -0.058 | duvelisib 0.038 | gandotinib 0.03 | bafetinib 0.018 | [2] 0.037 | nilotinib -0.039 | [3] -0.073 | dasatinib -0.022 | [4] 0.064 | [5] -0.001 | tipifarnib 0.038 | [7] 0.036 | [8] 0.109

DYNC2H1 isoform 2 (UniProt Q8NCM8)
inactive: lapatinib -0.058 | pictilisib -0.078 | [1] -0.12 | duvelisib 0.035 | gandotinib 0.004 | tozasertib -0.041 | bafetinib -0.302 | [2] -0.036 | nilotinib 0.023 | [3] -0.005 | dasatinib -0.125 | [4] -0.014 | [5] 0.17 | tipifarnib -0.049 | [7] -0.034 | [8] -0.079
